Experimental data as given in publication PMC12282055.
No constants are given. Whether binding was seen depends on the method and setting. In cells and extracts the contact can be indirect. Some results given as binding are weak or reduced against the parent protein; the word gives no strength.

T1: IFIT3 (interferon-induced protein with tetratricopeptide repeats 3), wild type (human) (UniProt O14879)
T1 sequence: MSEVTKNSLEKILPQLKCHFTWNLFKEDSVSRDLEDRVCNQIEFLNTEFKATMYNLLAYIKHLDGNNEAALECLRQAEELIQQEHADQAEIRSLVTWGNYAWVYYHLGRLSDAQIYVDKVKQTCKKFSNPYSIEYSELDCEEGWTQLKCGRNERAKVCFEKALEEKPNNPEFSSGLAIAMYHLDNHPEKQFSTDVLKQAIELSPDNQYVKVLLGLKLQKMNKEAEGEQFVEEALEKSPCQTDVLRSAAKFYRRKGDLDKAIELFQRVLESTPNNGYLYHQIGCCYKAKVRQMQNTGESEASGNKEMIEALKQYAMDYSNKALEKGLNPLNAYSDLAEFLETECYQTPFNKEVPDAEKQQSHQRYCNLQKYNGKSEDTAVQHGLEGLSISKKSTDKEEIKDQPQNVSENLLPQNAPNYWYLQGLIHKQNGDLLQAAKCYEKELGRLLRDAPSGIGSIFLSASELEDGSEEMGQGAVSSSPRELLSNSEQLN

T2: IFIT3 K249E (RNA-binding mutant) (human) (UniProt O14879)
T2 sequence: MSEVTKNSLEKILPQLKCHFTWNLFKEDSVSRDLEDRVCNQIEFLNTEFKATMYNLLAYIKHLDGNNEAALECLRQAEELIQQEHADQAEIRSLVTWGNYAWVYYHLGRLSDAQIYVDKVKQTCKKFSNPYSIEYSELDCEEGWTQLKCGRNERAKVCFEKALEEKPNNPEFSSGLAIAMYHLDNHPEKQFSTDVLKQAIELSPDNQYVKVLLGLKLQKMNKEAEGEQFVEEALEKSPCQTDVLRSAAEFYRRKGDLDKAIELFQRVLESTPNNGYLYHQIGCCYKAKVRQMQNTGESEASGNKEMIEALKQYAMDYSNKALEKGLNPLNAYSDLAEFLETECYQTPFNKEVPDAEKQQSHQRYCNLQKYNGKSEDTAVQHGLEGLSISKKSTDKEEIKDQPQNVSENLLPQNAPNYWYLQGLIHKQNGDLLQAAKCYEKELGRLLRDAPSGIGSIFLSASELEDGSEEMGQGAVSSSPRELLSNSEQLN


Legend:
[1] = target: T1, IFIT3 (interferon-induced protein with tetratricopeptide repeats 3), wild type (human); assay: co-IP; GFP- and V5-tagged WT and mutant proteins co-expressed in 293T cells; lysed in co-IP buffer; GFP-tagged form immunoprecipitated overnight with GFP trap resin, four washes; co-precipitating V5-tagged proteins detected by western blot
[2] = target: T2, IFIT3 K249E (RNA-binding mutant) (human); assay: as above

Row | Binder | binding [1] | binding [2]
1 | IFIT3 (interferon-induced protein with tetratricopeptide repeats 3), wild type (protein, UniProt O14879 1-490) MSEVTKNSLEKILPQLKCHFTWNLFKEDSVSRDLEDRVCNQIEFLNTEFKATMYNLLAYIKHLDGNNEAALECLRQAEELIQQEHADQAEIRSLVTWGNYAWVYYHLGRLSDAQIYVDKVKQTCKKFSNPYSIEYSELDCEEGWTQLKCGRNERAKVCFEKALEEKPNNPEFSSGLAIAMYHLDNHPEKQFSTDVLKQAIELSPDNQYVKVLLGLKLQKMNKEAEGEQFVEEALEKSPCQTDVLRSAAKFYRRKGDLDKAIELFQRVLESTPNNGYLYHQIGCCYKAKVRQMQNTGESEASGNKEMIEALKQYAMDYSNKALEKGLNPLNAYSDLAEFLETECYQTPFNKEVPDAEKQQSHQRYCNLQKYNGKSEDTAVQHGLEGLSISKKSTDKEEIKDQPQNVSENLLPQNAPNYWYLQGLIHKQNGDLLQAAKCYEKELGRLLRDAPSGIGSIFLSASELEDGSEEMGQGAVSSSPRELLSNSEQLN | binds | binds
2 | IFIT3 K249E (RNA-binding mutant) (protein, UniProt O14879 1-490) MSEVTKNSLEKILPQLKCHFTWNLFKEDSVSRDLEDRVCNQIEFLNTEFKATMYNLLAYIKHLDGNNEAALECLRQAEELIQQEHADQAEIRSLVTWGNYAWVYYHLGRLSDAQIYVDKVKQTCKKFSNPYSIEYSELDCEEGWTQLKCGRNERAKVCFEKALEEKPNNPEFSSGLAIAMYHLDNHPEKQFSTDVLKQAIELSPDNQYVKVLLGLKLQKMNKEAEGEQFVEEALEKSPCQTDVLRSAAEFYRRKGDLDKAIELFQRVLESTPNNGYLYHQIGCCYKAKVRQMQNTGESEASGNKEMIEALKQYAMDYSNKALEKGLNPLNAYSDLAEFLETECYQTPFNKEVPDAEKQQSHQRYCNLQKYNGKSEDTAVQHGLEGLSISKKSTDKEEIKDQPQNVSENLLPQNAPNYWYLQGLIHKQNGDLLQAAKCYEKELGRLLRDAPSGIGSIFLSASELEDGSEEMGQGAVSSSPRELLSNSEQLN | binds | binds
